This passage reports binding results from paper doi:10.1101/2020.08.17.253450.

Where two headings read alike, the source gives them in different places. These are yes or no findings as the source states them, for the method shown. Some entries that bind do so weakly or less than the wild type.

In assay [1] the target is T1, human TMEM39A second cytoplasmic loop domain (a.a. 337-420) (human) (UniProt Q9NV64).
T1 sequence: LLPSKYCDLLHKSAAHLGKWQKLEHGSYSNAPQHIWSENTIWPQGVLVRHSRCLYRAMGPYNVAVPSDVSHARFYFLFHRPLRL
The assay can be described thus: two-hybrid.

Assay [2] addresses T1, human TMEM39A second cytoplasmic loop domain (a.a. 337-420) (human). The assay can be described thus: two-hybrid. The source holds these as a separate data set.

B1: human Sec23A C-termini (a.a. 583-765) (domain or fragment, UniProt Q15436 583-765)
chain: HLRRSSFLQVFNNSPDESSYYRHHFMRQDLTQSLIMIQPILYAYSFSGPPEPVLLDSSSILADRILLMDTFFQILIYHGETIAQWRKSGYQDMPEYENFRHLLQAPVDDAQEILHSRFPMPRYIDTEHGGSQARFLLSKVNPSQTHNNMYAWGQESGAPILTDDVSLQVFMDHLKKLAVSSAA
For B1, the binding entry in assay [1] and in assay [2] was “binds” each time.
